Measured values published in patent publication US4542018A, “Teichomycin A2 pure single factors 1, 2, 3, 4 and 5 and method for their production” (Gruppo Lepetit S.p.A., priority 1982, dated 1985).
For at least one compound, name, drawing or mass did not settle the structure.

System: S. pyogenes L 49
Experiment: In vivo antibacterial activity, experimental infection in mice
Settings: s.c.
Description: Teichomycin A2 factors 2,3,4 and 5 were tested in the experimental infections caused by S. pneumoniae and by S. pyogenes in mice. The experiments were carried out in comparison with Teichomycin A2 complex.

In the case of `CCC(C)CCCCCCC(=O)N[C@H]1[C@H](Oc2c3cc4cc2Oc2ccc(cc2Cl)[C@@H](O[C@@H]2O[C@H](CO)[C@@H](O)[C@H](O)[C@H]2NC(C)=O)[C@@H]2NC(=O)[C@H](NC(=O)[C@@H]4NC(=O)[C@H]4NC(=O)[C@@H](Cc5ccc(c(Cl)c5)O3)NC(=O)[C@H](N)c3ccc(O)c(c3)Oc3cc(O)cc4c3)c3ccc(O)c(c3)-c3c(O[C@H]4O[C@H](CO)[C@@H](O)[C@H](O)[C@@H]4O)cc(O)cc3[C@@H](C(=O)O)NC2=O)O[C@H](CO)[C@@H](O)[C@@H]1O` (stereo partly shown) [Teichomycin A2 factor 4], the ED50 is reported as 0.098 - (0.073-0.11) mg/kg/day.
